Results deposited as PubChem BioAssay AID686938 (Drosophila RNAi Screening Center, 2013)
The deposit covers about 23,000 reagents; shown is a random part of those with a known target gene and a result. Over the whole deposit, 75 (0.33%) were called active. 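Raw plate signals without normalisation; calls rest on plate z-scores that were not deposited; ratio present for only 364 wells.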 Reagents against one gene are numbered here. Names joined by + are all predicted targets of the reagent. Not given: the dose of the treatment.

Aim: 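Looking for CRAC channel components and the factors controlling them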 (primary screen)
System: Drosophila S2R+ cells
Reagent: long dsRNA against Drosophila genes, about 0.25 µg dsRNA per well, roughly 10,000 cells
Timing: 5 days of knock-down before the calcium assay
Conditions: thapsigargin (SERCA pump blocker) to empty calcium stores; entry signal taken 4 min after adding it
Measured: 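Duplicate raw fluo-4 intensities per well from a plate reader, at rest and four minutes after thapsigargin emptied calcium stores; entry-to-rest ratio filled for only some wells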
Reading the numbers: calcium entry signal: higher = stronger calcium signal after store depletion; resting calcium signal: higher = higher resting calcium signal
Call rule: 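Hit if the duplicate-averaged plate z-score for entry over resting signal is under −3; wells with weak total dye signal (Fmax z < −2) or more than 5 off-targets removed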
Meaning of the calls: active = strongly reduced calcium entry; inactive = no strong reduction

Gene	reagent	calcium entry signal, replicate 1 (fluorescence units)	calcium entry signal, replicate 2 (fluorescence units)	resting calcium signal, replicate 1 (fluorescence units)	resting calcium signal, replicate 2 (fluorescence units)	Call
ScpX	1	5.12e7		2.33e7		inactive
CG7567	1	3.46e7	5.10e7	1.67e7	2.05e7	inactive
abd-A	1	4.51e7	4.55e7	2.42e7	2.10e7	inactive
abd-A	2	1.53e7	2.95e7	1.08e7	7.21e7	inactive
abd-A	3	3.90e7	3.98e7	1.81e7	1.66e7	inactive
CG15373	1	3.50e7	3.11e7	1.80e7	1.57e7	inactive
Smug	1	3.61e7	5.49e7	1.81e7	6.53e7	inactive
Zfrp8	1	3.20e7	3.28e7	1.65e7	1.70e7	inactive
CG8028	1	3.79e7	4.52e7	2.05e7	1.96e7	inactive
CG10918	1	4.41e7	3.76e7	1.92e7	1.40e7	inactive
CG33177	1	3.86e7	3.50e7	1.81e7	1.56e7	inactive
CG34296	1	3.63e7	3.38e7	1.71e7	1.93e7	inactive
MFS14	1	4.34e7	3.27e7	1.93e7	1.59e7	inactive
CG13295	1	2.57e7	3.04e7	1.17e7	1.18e7	inactive
Nepl15	1	3.73e7	3.56e7	1.64e7	1.50e7	inactive
mRpL24	1	4.82e7		1.60e7		inactive
TwdlG	1	3.50e7	5.63e7	1.48e7	2.35e7	inactive
JMJD5	1	3.64e7	3.63e7	1.89e7	1.70e7	inactive
jet	1	3.86e7		1.86e7		inactive
CG3611	1	4.09e7	5.04e7	2.09e7	2.44e7	inactive
CG6980	1	4.57e7	4.00e7	2.07e7	1.76e7	inactive
AsnRS	1	2.94e7		1.60e7		inactive
Pak	1	3.80e7	4.60e7	1.60e7	1.96e7	inactive
Pak	2	5.48e7	3.22e7	2.61e7	1.39e7	inactive
CG4962	1	3.09e7	5.66e7	1.62e7	1.84e7	inactive

Copied from the entries so far, 9 entries:
Gene	reagent	calcium entry signal, replicate 1 (fluorescence units)	calcium entry signal, replicate 2 (fluorescence units)	resting calcium signal, replicate 1 (fluorescence units)	resting calcium signal, replicate 2 (fluorescence units)	Call
CG34296	1	3.63e7	3.38e7	1.71e7	1.93e7	inactive
MFS14	1	4.34e7	3.27e7	1.93e7	1.59e7	inactive
CG13295	1	2.57e7	3.04e7	1.17e7	1.18e7	inactive
Nepl15	1	3.73e7	3.56e7	1.64e7	1.50e7	inactive
mRpL24	1	4.82e7		1.60e7		inactive
TwdlG	1	3.50e7	5.63e7	1.48e7	2.35e7	inactive
JMJD5	1	3.64e7	3.63e7	1.89e7	1.70e7	inactive
jet	1	3.86e7		1.86e7		inactive
CG3611	1	4.09e7	5.04e7	2.09e7	2.44e7	inactive

Additional entries follow.
Gene	reagent	calcium entry signal, replicate 1 (fluorescence units)	calcium entry signal, replicate 2 (fluorescence units)	resting calcium signal, replicate 1 (fluorescence units)	resting calcium signal, replicate 2 (fluorescence units)	Call
CG13101	1	4.97e7		2.30e7		inactive
CG13474	1	3.67e7	5.00e7	2.08e7	2.60e7	inactive
asRNA:CR42547 + CG15674	1	4.50e7	4.99e7	2.25e7	2.12e7	inactive
cu	1	1.79e7	2.11e7	1.03e7	1.04e7	inactive
cu	2	2.45e7	1.88e7	1.29e7	1.06e7	inactive
Syx18	1	3.73e7	4.11e7	1.93e7	1.97e7	inactive
CG18476	1	2.64e7	3.21e7	1.19e7	1.50e7	inactive
Cyp6u1	1	3.27e7		1.85e7		inactive
CG31921	1	3.04e7	3.40e7	1.66e7	1.46e7	inactive
CG3280 (retired record)	1	3.00e7	3.82e7	1.46e7	1.64e7	inactive
CG11041	1	5.60e7	5.52e7	2.36e7	2.57e7	inactive
ND-51L1	1	5.07e7	5.86e7	2.20e7	2.66e7	inactive
psh	1	4.19e7	3.12e7	2.18e7	1.50e7	inactive
CG5854	1	5.28e7	2.36e7	2.29e7	1.26e7	inactive
CAH13	1	3.91e7	4.43e7	1.91e7	1.95e7	inactive
Rbp9	1	2.54e7	2.46e7	1.26e7	1.24e7	inactive
Rbp9	2	4.14e7		1.76e7		inactive
bif	1	2.97e7	2.56e7	1.37e7	1.18e7	inactive
bif	2	2.88e7	3.62e7	1.31e7	1.69e7	inactive
CG3402	1	3.95e7	4.22e7	1.90e7	2.03e7	inactive
Ppt1	1	3.54e7	4.10e7	1.60e7	1.95e7	inactive
CG5846	1	5.40e7		2.62e7		inactive
l(1)G0020	1	3.42e7	2.89e7	1.75e7	1.45e7	inactive
CG4582	1	3.92e7	4.36e7	1.82e7	1.83e7	inactive
CG4927	1	5.14e7	5.15e7	2.23e7	2.50e7	inactive
Nup358	1	3.85e7	2.87e7	1.87e7	1.43e7	inactive
pths	1	1.97e7	1.88e7	1.27e7	1.21e7	inactive
CG6996	1	1.91e7	3.28e7	1.08e7	1.37e7	inactive
CG12869	1	2.49e7	3.68e7	1.29e7	1.64e7	inactive
Dso1	1	2.67e7	2.66e7	1.58e7	1.76e7	inactive
CG7634	1	2.70e7	3.87e7	1.20e7	1.68e7	inactive
wake	1	3.94e7	4.58e7	1.92e7	2.13e7	inactive
wake	2	4.24e7	4.77e7	1.91e7	1.93e7	inactive
